Results are given in words; binding and its absence hold for the method and conditions named. In cells and extracts the contact can be indirect. A result given as binding can be weak or reduced; the word gives no strength.
Experiments:
[1] = target: ΔCDX2, PPQY deletion mutant of CDX2 (Δ31-58) (mouse) (UniProt P43241); assay: co-IP; SH-SY5Y cells transfected with full-length CDX2 or ΔCDX2 along with full-length YAP, 48 h; IP with anti-FLAG antibody, blot with anti-YAP
[2] = target: FLAG-tagged ΔWW1YAP (Δ156-189) (mouse) (UniProt P46938); assay: co-IP; lysates of TSCs transfected with FLAG-tagged full-length YAP or YAP deletion constructs; IP with anti-FLAG antibody, immunoblot with anti-CDX2 (endogenous CDX2); isotype matched antibody as negative control

The chains behind the UniProt entries cited, without tags or fusion partners. Where a name states a change or a piece, a line headed by the entry shows the natural chain unless it says otherwise.
UniProt P46938: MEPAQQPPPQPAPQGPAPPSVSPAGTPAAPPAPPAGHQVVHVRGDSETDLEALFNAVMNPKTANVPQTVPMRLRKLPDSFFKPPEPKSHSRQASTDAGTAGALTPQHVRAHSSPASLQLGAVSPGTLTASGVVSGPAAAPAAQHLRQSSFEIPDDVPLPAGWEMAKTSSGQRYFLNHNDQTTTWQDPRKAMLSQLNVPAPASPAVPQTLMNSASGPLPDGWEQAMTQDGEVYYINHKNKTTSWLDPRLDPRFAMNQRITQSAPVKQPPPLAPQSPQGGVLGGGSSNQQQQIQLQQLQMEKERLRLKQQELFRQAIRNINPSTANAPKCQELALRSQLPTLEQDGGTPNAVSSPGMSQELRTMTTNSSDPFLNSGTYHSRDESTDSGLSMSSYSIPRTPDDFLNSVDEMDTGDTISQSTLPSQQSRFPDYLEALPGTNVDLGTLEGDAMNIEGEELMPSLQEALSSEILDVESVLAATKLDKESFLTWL

| binding [1] | binding [2] | Molecule |
| --- | --- | --- |
| binds |  | full-length YAP (expressed in SH-SY5Y cells) (from UniProt P46938-1 1-488) |
|  | binds | CDX2 (Caudal type homeobox 2), endogenous in trophoblast stem cells (protein, UniProt P43241 1-311) MYVSYLLDKDVSMYPSSVRHSGGLNLAPQNFVSPPQYPDYGGYHVAAAAAATANLDSAQSPGPSWPTAYGAPLREDWNGYAPGGAAAANAVAHGLNGGSPAAAMGYSSPAEYHAHHHPHHHPHHPAASPSCASGLLQTLNLGPPGPAATAAAEQLSPSGQRRNLCEWMRKPAQQSLGSQVKTRTKDKYRVVYTDHQRLELEKEFHFSRYITIRRKSELAATLGLSERQVKIWFQNRRAKERKIKKKQQQQQQQQQQQPPQPPPQPSQPQPGALRSVPEPLSPVTSLQGSVPGSVPGVLGPAGGVLNSTVTQ |

Reference: article PMC9080189
